Only a part is listed here, and it is no random draw. For some of these results: At the low end of the ranking the order means little. The list shows a part of the results. For some of these results: The exact form of the protein is not confirmed.
Experiments:
Test in all cases: DAPPL (digital affinity profiling via proximity ligation, sequencing)
Details in all cases: 10 mM Tris-HCl pH 7.5, 50 mM NaCl, 1 mM DTT, 4% glycerol, room temperature, 30 min; GST-TFs on glutathione beads, 16-mer random dsDNA library, 0.1% …; high values mean tight binding; double strand, one strand shown; scale: fold enrichment (6-mer frequency, TF over GST control)
ERG = target: T1, ERG (UniProt P11308)
T1 sequence: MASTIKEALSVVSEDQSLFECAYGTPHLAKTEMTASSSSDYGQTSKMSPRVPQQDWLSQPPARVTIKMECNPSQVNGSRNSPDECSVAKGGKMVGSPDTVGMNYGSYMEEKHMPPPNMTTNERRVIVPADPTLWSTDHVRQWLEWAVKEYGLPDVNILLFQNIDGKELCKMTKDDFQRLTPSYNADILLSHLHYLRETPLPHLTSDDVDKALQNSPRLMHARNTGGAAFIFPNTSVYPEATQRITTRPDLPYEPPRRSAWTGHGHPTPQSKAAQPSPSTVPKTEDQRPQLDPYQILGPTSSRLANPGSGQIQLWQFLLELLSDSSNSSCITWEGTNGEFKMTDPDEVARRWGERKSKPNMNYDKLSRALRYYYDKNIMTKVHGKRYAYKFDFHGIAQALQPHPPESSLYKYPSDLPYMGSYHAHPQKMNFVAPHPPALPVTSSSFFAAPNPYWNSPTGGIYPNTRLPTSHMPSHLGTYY

Sequences of proteins named here, by UniProt entry; tags and fusion partners are left off. A change or cut given only in a name is not applied to a line headed by its entry.
UniProt P50549: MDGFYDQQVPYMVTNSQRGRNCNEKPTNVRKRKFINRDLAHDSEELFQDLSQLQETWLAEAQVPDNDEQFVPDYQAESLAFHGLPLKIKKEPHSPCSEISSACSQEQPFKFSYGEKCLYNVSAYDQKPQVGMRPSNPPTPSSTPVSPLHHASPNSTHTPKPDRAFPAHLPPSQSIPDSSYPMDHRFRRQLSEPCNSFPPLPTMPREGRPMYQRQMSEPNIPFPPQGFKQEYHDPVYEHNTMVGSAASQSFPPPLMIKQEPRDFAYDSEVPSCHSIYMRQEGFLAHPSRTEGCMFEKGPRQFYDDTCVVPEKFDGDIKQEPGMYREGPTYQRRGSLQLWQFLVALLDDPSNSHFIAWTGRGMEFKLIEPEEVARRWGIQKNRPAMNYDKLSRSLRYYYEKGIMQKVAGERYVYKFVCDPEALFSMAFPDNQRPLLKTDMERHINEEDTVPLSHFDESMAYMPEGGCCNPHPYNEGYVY
UniProt P32519: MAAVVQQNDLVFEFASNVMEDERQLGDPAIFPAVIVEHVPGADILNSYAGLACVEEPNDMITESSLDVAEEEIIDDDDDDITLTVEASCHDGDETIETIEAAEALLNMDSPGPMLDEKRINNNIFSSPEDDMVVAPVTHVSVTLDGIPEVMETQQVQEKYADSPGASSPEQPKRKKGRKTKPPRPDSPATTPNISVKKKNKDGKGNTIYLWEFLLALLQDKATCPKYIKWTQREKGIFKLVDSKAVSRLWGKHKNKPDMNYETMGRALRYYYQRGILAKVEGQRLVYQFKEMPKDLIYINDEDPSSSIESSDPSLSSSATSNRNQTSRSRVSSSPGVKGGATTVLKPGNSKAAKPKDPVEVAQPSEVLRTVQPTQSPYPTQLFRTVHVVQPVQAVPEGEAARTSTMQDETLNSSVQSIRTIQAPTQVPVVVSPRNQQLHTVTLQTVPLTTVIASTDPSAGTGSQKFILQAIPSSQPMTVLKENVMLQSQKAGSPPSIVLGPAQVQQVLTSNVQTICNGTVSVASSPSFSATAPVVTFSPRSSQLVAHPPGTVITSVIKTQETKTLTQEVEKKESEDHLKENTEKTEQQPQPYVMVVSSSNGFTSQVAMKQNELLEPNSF

ETV4 = target: T2, ETV4 (UniProt P43268)
T2 sequence: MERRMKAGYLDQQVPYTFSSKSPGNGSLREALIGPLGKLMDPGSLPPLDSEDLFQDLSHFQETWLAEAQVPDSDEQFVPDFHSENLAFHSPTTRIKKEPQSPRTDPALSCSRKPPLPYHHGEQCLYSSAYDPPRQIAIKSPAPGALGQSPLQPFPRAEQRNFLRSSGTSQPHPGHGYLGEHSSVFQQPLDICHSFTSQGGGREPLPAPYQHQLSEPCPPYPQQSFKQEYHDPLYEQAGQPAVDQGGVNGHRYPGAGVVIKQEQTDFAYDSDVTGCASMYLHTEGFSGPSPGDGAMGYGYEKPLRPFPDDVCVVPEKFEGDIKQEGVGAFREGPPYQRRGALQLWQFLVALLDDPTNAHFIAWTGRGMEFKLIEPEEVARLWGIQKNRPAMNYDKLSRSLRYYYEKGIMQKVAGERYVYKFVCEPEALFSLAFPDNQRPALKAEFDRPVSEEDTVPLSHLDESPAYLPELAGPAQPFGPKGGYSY

ETV1 = ETV1 (UniProt P50549)
ERF = target: T3, ERF (UniProt P50548)
T3 sequence: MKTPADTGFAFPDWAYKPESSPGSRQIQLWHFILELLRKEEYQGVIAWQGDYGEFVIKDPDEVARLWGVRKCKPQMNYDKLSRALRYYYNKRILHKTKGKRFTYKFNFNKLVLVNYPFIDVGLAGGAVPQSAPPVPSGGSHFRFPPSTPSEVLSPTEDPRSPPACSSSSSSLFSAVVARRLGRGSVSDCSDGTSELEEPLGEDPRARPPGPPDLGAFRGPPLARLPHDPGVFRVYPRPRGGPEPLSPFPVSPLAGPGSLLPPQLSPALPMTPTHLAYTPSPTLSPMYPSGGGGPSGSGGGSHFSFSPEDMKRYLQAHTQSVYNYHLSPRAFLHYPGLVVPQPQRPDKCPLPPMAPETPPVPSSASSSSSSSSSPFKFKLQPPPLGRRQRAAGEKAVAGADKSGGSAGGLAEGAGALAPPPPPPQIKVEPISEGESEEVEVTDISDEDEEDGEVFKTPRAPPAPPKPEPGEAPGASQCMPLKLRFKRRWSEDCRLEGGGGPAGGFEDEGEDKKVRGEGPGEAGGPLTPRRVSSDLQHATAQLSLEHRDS

ELF1 = ELF1 (UniProt P32519)

Sequence | binding signal (ERG) | binding signal (ETV4) | binding signal (ETV1) | binding signal (ERF) | binding signal (ELF1)
TTTCGT | 1.23 | 1.29 | 1.38 | 1.21 | 
ACACCA | 1.01 | 0.992 | 0.976 | 0.988 | 
AAGGCA | 0.969 | 1.04 | 1.1 | 1.04 | 
GATAGC | 1.02 | 0.974 | 1.02 | 1.15 | 
ATACGG | 1.23 | 1.24 | 1.21 |  | 
TGGCGC | 0.95 | 1 | 0.876 | 0.973 | 0.917
TGCCGA | 1.1 | 1.12 | 1.14 | 0.963 | 
TGGCCA | 1.05 | 1.18 | 0.973 |  | 
GACCAA | 0.901 | 0.956 | 0.97 | 0.961 | 
CCAAGC | 0.993 | 1.01 | 0.962 | 0.994 | 
GCCCGA | 1.01 | 0.988 | 0.971 |  | 
TCTGAG | 0.96 | 1.02 | 0.924 | 0.968 | 
AGATAT | 0.983 | 0.974 | 0.95 | 0.956 | 0.979
CGAAGG | 0.812 | 0.942 | 0.914 | 0.955 | 0.966
GCCTGG | 0.959 | 0.989 | 0.987 | 0.946 | 0.96
TTGGCA | 1.15 | 1.11 | 1.18 | 1.19 | 1.13
GTGTTG | 0.843 | 0.936 | 0.88 | 0.965 | 0.931
CCCAGA | 0.932 | 0.841 | 0.866 | 0.872 | 0.875
TGGTGA | 0.884 | 0.923 | 0.968 | 0.955 | 0.985
CGCGTA | 0.965 | 0.977 | 0.949 | 0.923 | 0.941
GCGCAC | 0.849 | 0.897 | 0.877 | 0.923 | 0.923
GATAAA | 0.966 | 0.932 | 0.954 | 0.943 | 0.957
ACCAAA | 0.969 | 1.06 | 0.956 | 1.03 | 1.04
GCAGGT | 0.941 | 0.826 | 0.925 | 0.889 | 0.842

Sequence | binding signal (ERG) | binding signal (ETV4) | binding signal (ETV1) | binding signal (ERF) | binding signal (ELF1)
AGGGTT | 0.875 | 0.948 | 1.01 | 0.944 | 0.979
ATCAGA | 0.92 | 0.917 | 0.864 | 0.945 | 0.947
GTGGTA | 0.942 | 0.99 | 0.879 | 0.998 | 0.909
AGTTTG | 0.872 | 0.885 | 0.978 | 1.01 | 0.89
TCAGTA | 0.925 | 0.92 | 0.861 | 0.961 | 1.01
CTTGAG | 0.974 | 0.911 | 0.905 | 0.904 | 0.944
ATAAGT | 0.972 | 1.03 | 0.982 | 0.989 | 1.08
CTGAGG | 0.785 | 0.906 | 0.875 | 0.883 | 0.871
GTATGA | 0.922 | 0.996 | 0.916 | 0.975 | 0.917
AGAAGT | 0.999 | 1.05 | 1.05 | 1.05 | 0.992
CTTATT | 1.53 | 1.51 | 1.52 | 1.44 | 1.5
GCCACC | 0.85 | 0.952 | 0.965 | 0.858 | 0.914
GCCGCA | 0.997 | 0.926 | 0.95 | 1.07 | 1.04
GTAGCG | 0.944 | 1.02 | 0.993 | 0.845 | 0.921
CATCAG | 0.962 | 0.92 | 0.886 | 0.899 | 0.929
GTGGAA | 0.984 | 0.96 | 0.944 | 0.89 | 0.942
TGATAA | 0.913 | 0.997 | 1.07 | 0.98 | 1
GCAAGC | 0.87 | 0.872 | 0.943 | 0.899 | 0.955
CCACAG | 0.91 | 0.879 | 0.916 | 0.988 | 0.965
ATAGGT | 1.01 | 0.975 | 1.03 | 0.972 | 0.974
GCGTTA | 0.929 | 0.909 | 0.918 | 0.878 | 0.939
GATGGA | 0.858 | 0.91 | 0.916 | 0.878 | 0.924
CCAGAA | 0.983 | 0.92 | 0.969 | 0.908 | 0.997
GCGCCG | 0.98 | 0.936 | 0.914 | 0.876 | 0.897

Sequence | binding signal (ERG) | binding signal (ETV4) | binding signal (ETV1) | binding signal (ERF) | binding signal (ELF1)
GGCTGC | 0.915 | 1.03 | 0.92 | 0.994 | 0.959
CGAAGT | 0.928 | 0.901 | 0.967 | 0.927 | 0.912
CTGTGT | 0.889 | 0.879 | 0.805 | 0.861 | 0.843
ACAGTT | 0.821 | 0.764 | 0.808 | 0.902 | 0.831
TCCAGC | 0.972 | 0.938 | 0.919 | 0.922 | 0.929
CCGGCG | 1.09 | 1.04 | 0.965 | 0.982 | 0.972
TGGGTA | 0.949 | 1.01 | 0.988 |  | 0.99
GTTGGT | 0.891 | 0.907 | 0.996 | 0.973 | 0.965
GGCCTG | 0.812 | 0.918 | 0.894 | 0.956 | 0.878
GCCCCG | 1.06 | 1.09 | 0.966 |  | 0.974
AACAGA | 0.994 | 0.981 | 0.99 | 0.932 | 0.928
CAGTTC | 0.993 | 0.962 | 0.965 | 0.919 | 0.943
GCTAAC | 0.992 | 1.08 | 0.976 |  | 1.04
GTTGAA | 0.829 | 0.825 | 0.841 | 0.875 | 0.923
ACCCAC | 1.1 | 1.3 | 1.17 |  | 1.13
CTCCAC | 1.37 | 1.48 | 1.25 |  | 1.38
GTTGTC | 0.81 | 0.856 | 0.927 | 0.925 | 0.913
CACATG | 1.07 | 1.07 | 1.1 |  | 1.16
TGGGTG | 1.01 | 1.07 | 0.858 |  | 1
CATAGT | 0.907 | 1.05 | 0.974 |  | 1.01
TAAGGG | 0.979 | 0.936 | 1.05 |  | 0.99
CGCCAA | 0.969 | 1.04 | 0.95 |  | 1.08
CCAGCT | 0.925 | 0.92 | 0.81 |  | 0.989
TGAAGC | 0.956 | 0.997 | 0.953 |  | 0.952

As a short view, some entries already given:
Sequence | binding signal (ERG) | binding signal (ETV4) | binding signal (ETV1) | binding signal (ERF) | binding signal (ELF1)
AGATAT | 0.983 | 0.974 | 0.95 | 0.956 | 0.979
CGAAGG | 0.812 | 0.942 | 0.914 | 0.955 | 0.966
GCCTGG | 0.959 | 0.989 | 0.987 | 0.946 | 0.96
TTGGCA | 1.15 | 1.11 | 1.18 | 1.19 | 1.13
GTGTTG | 0.843 | 0.936 | 0.88 | 0.965 | 0.931
CCCAGA | 0.932 | 0.841 | 0.866 | 0.872 | 0.875
TGGTGA | 0.884 | 0.923 | 0.968 | 0.955 | 0.985
CGCGTA | 0.965 | 0.977 | 0.949 | 0.923 | 0.941
GCGCAC | 0.849 | 0.897 | 0.877 | 0.923 | 0.923
GATAAA | 0.966 | 0.932 | 0.954 | 0.943 | 0.957
ACCAAA | 0.969 | 1.06 | 0.956 | 1.03 | 1.04
GCAGGT | 0.941 | 0.826 | 0.925 | 0.889 | 0.842
AGGGTT | 0.875 | 0.948 | 1.01 | 0.944 | 0.979
ATCAGA | 0.92 | 0.917 | 0.864 | 0.945 | 0.947
GTGGTA | 0.942 | 0.99 | 0.879 | 0.998 | 0.909
AGTTTG | 0.872 | 0.885 | 0.978 | 1.01 | 0.89
TCAGTA | 0.925 | 0.92 | 0.861 | 0.961 | 1.01
CTTGAG | 0.974 | 0.911 | 0.905 | 0.904 | 0.944
ATAAGT | 0.972 | 1.03 | 0.982 | 0.989 | 1.08
CTGAGG | 0.785 | 0.906 | 0.875 | 0.883 | 0.871
GTATGA | 0.922 | 0.996 | 0.916 | 0.975 | 0.917
AGAAGT | 0.999 | 1.05 | 1.05 | 1.05 | 0.992
CTTATT | 1.53 | 1.51 | 1.52 | 1.44 | 1.5
GCCACC | 0.85 | 0.952 | 0.965 | 0.858 | 0.914

Following part:

Sequence | binding signal (ERG) | binding signal (ETV4) | binding signal (ETV1) | binding signal (ERF) | binding signal (ELF1)
AAATAA | 1.37 | 1.24 | 1.3 |  | 1.33
GTGCGC | 0.945 | 1 | 0.913 | 0.937 | 0.93
TGTGCG | 0.934 | 1.04 | 0.969 |  | 0.958
TGTTAG | 0.881 | 0.956 | 0.969 | 0.987 | 0.879
GCCTAG | 0.925 | 0.942 | 0.908 |  | 0.974
AACGGC | 1.18 | 1.24 | 1.17 |  | 1.16
ATAGTG | 0.893 | 0.903 | 0.889 | 0.969 | 0.857
ACTTGC | 1.41 | 1.41 | 1.37 |  | 1.37
GTGGCA | 0.97 | 1.01 | 0.914 | 0.866 | 0.941
GCGTCA | 0.982 | 0.986 | 0.963 | 0.981 | 0.984
TCGCAT | 0.982 | 1.05 | 0.968 |  | 1.04
CCATAG | 0.853 | 0.921 | 0.88 | 0.971 | 0.911
GGCATT | 1.04 | 1.04 | 1.1 |  | 0.985
AGAAGA | 0.862 | 0.961 | 0.952 | 0.922 | 0.947
GACTGC | 0.962 | 1 | 0.988 |  | 0.888
CAAGCC | 0.911 | 1.01 | 0.99 | 0.99 | 0.969
TGTGCA | 1.16 | 1.15 | 1.05 |  | 1.08
GATCAT | 0.961 | 0.95 | 0.958 |  | 1.01
CGCGCG | 0.939 | 1.03 | 0.982 | 0.933 | 0.975
TGGGAC | 0.962 | 1.02 | 0.973 | 0.994 | 0.993
GAATAG | 0.94 | 0.91 | 0.995 |  | 0.973
CATTGA |  |  | 0.962 |  | 0.988
CTGCAG |  |  | 0.996 |  | 1.08
CCAACG | 1.17 | 1.18 |  | 1.29 | 1.2

Reference: paper PMC7862700
